Data on 42 targets can be found in the supplement of paper PMC12067093, “Discovery and optimisation of a covalent ligand for TRIM25 and its application to targeted protein ubiquitination” (Chemical Science, 2025).

This is one part of the list.

Compound in the assay: CC1Cc2ccccc2N1C(=O)C1CCCN(C1)C(=O)CCl (mixture of isomers) [TRIM25 ligand 11 (diastereomer mixture)]
The assay is described as follows: probe-labelled cysteine peptide fold change vs DMSO (competition) (log2 fold change); higher = less target engagement (more negative = stronger competition). Particulars: THP-1, incubation time: 4 h.
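Note: competitive chemoproteomic profiling in live THP-1 cells with an iodoacetamide desthiobiotin (IA-DTB) probe, comparing probe-labelled peptide intensities in compound-treated cells against DMSO-treated controls.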

Turning to “DPP7_Q9UHL4_332+338_LYHSCADPTGCGTGPDAR (UniProt Q9UHL4)”, the “probe-labelled cysteine peptide fold change” value worked out at 0.0791 (10 µM) and 0.205 (50 µM).

Turning to “DUSP19_Q8WTR2_188_NARPSICPNSGFMEQLR (UniProt Q8WTR2)”, the “probe-labelled cysteine peptide fold change” value reads like this: (10 µM) -0.0315; (50 µM) -0.0499.

Take “DYNLT1_P63172_93_NGAGLHTASSCFWDSSTDGSCTVR (UniProt P63172)”: the “probe-labelled cysteine peptide fold change” value by setting is: (10 µM) 0.105; (50 µM) 0.0583.

For “DRG2_P55039_198_KGGGISFNSTVTLTQCSEK (UniProt P55039)”, the “probe-labelled cysteine peptide fold change” value worked out at 0.224 (10 µM) and 0.187 (50 µM).

For “DNMT1_P26358_1499_QFNTLIPWCLPHTGNR (UniProt P26358)”, the “probe-labelled cysteine peptide fold change” value was -0.000403 (10 µM) and -0.0903 (50 µM).

As to “DYNC1H1_Q14204_2594_VAAPDVVVPTLDTVRHEALLYTWLAEHKPLVLCGPPGSGK (UniProt Q14204)”, the “probe-labelled cysteine peptide fold change” value is, setting by setting: (10 µM) -0.242; (50 µM) -0.191.

As for “DPP9_Q86TI2_225_RLTFCHQGLSNVLDDPK (UniProt Q86TI2)”, the “probe-labelled cysteine peptide fold change” value stood at 0.134 (10 µM) and 0.136 (50 µM).

As for “DPH7_Q9BTV6_33_HLLACGTYQLR (UniProt Q9BTV6)”, the “probe-labelled cysteine peptide fold change” value is -0.00198 (10 µM) and 0.144 (50 µM).

For the target “DTX3L_Q8TDB6_159_AYITTLCPSIR (UniProt Q8TDB6)”, the “probe-labelled cysteine peptide fold change” value is -0.0664 (10 µM) and -0.172 (50 µM).

Regarding “DOP1A_Q5JWR5_2127_EAFDLFMDPSFFQMDASCVNHWR (UniProt Q5JWR5)”, the “probe-labelled cysteine peptide fold change” value runs as follows: (10 µM) -0.177; (50 µM) 0.066.

For “DUSP3_P51452_171_EIGPNDGFLAQLCQLNDR (UniProt P51452)”, the “probe-labelled cysteine peptide fold change” value reads like this: (10 µM) -0.408; (50 µM) -0.0736.

On to “DNPH1_O43598_26_GEPGRPALYFCGSIR (UniProt O43598)”, for which the “probe-labelled cysteine peptide fold change” value is, setting by setting: (10 µM) -0.11; (50 µM) -0.123.

Regarding “DUS3L_Q96G46_162_CVLFETFGR (UniProt Q96G46)”, the “probe-labelled cysteine peptide fold change” value was 0.044 (10 µM) and -0.0826 (50 µM).

Take “DSTN_P60981_46_CIIVEEGK (UniProt P60981)”: the “probe-labelled cysteine peptide fold change” value is, setting by setting: (10 µM) 0.187; (50 µM) 0.135.

With “DUSP11_O75319_199_LIGVHCTHGLNR (UniProt O75319)”, the “probe-labelled cysteine peptide fold change” value is 0.196 (10 µM) and 0.0218 (50 µM).

“DOK3_Q7L591_323_LPELTRPQPCPLPR (UniProt Q7L591)”: the “probe-labelled cysteine peptide fold change” value is, setting by setting: (10 µM) 0.463; (50 µM) -0.185.

On to “DPP9_Q86TI2_184_TQCSGPR (UniProt Q86TI2)”, for which the “probe-labelled cysteine peptide fold change” value is -0.111 (10 µM) and -0.073 (50 µM).

Turning to “DPF2_Q92785_295_TGQPEELVSCSDCGR (UniProt Q92785)”, the “probe-labelled cysteine peptide fold change” value was -0.0731 (10 µM) and -0.128 (50 µM).

Consider “DOCK2_Q92608_41_IQETCGDWYR (UniProt Q92608)”, for which the “probe-labelled cysteine peptide fold change” value reads like this: (10 µM) 0.0325; (50 µM) -0.049.

In the case of “DYNC1H1_Q14204_4644_GVAVLCTE (UniProt Q14204)”, the “probe-labelled cysteine peptide fold change” value came to 0.0055 (10 µM) and 0.0643 (50 µM).

Consider “DPCD_Q9BVM2_164_FSIPDLDRHQLPLDDALLSFAHANCTLIISYQK (UniProt Q9BVM2)”, for which the “probe-labelled cysteine peptide fold change” value (10 µM) was 0.0459 and the “probe-labelled cysteine peptide fold change” value (50 µM) stood at 0.267.

With “DYNC1LI2_O43237_234_CDAVSVLEK (UniProt O43237)”, the “probe-labelled cysteine peptide fold change” value by setting is: (10 µM) 0.0491; (50 µM) 0.294.

On to “DRG2_P55039_319_KGASVEHVCHR (UniProt P55039)”, for which the “probe-labelled cysteine peptide fold change” value runs as follows: (10 µM) 0.144; (50 µM) 0.0899.

With “DUSP23_Q9BVJ7_53_GPPHSDSCPGLTLHR (UniProt Q9BVJ7)”, the “probe-labelled cysteine peptide fold change” value runs as follows: (10 µM) 0.0414; (50 µM) -0.0244.

Consider “DSTN_P60981_39_AVIFCLSADKK (UniProt P60981)”, for which the “probe-labelled cysteine peptide fold change” value (10 µM) is -0.0635 and the “probe-labelled cysteine peptide fold change” value (50 µM) was -0.0141.

For the target “DYNC1H1_Q14204_2594_PLVLCGPPGSGK (UniProt Q14204)”, the “probe-labelled cysteine peptide fold change” value is 0.128 (10 µM) and -0.0276 (50 µM).

“DPP8_Q6V1X1_221_LCPADPDWIAFIHSNDIWISNIVTR (UniProt Q6V1X1)”: the “probe-labelled cysteine peptide fold change” value (10 µM) turned out to be 0.0503 and the “probe-labelled cysteine peptide fold change” value (50 µM) was -0.28.

As for “DOCK11_Q5JSL3_1110_VQDSNLEYSLSDEYCK (UniProt Q5JSL3)”, the “probe-labelled cysteine peptide fold change” value is, setting by setting: (10 µM) 0.137; (50 µM) 0.139.

Take “DNMT1_P26358_420_HGHLCPIDTGLIEK (UniProt P26358)”: the “probe-labelled cysteine peptide fold change” value runs as follows: (10 µM) -0.0746; (50 µM) -0.0779.

Turning to “DNMT3A_Q9Y6K1_818_LELQECLEHGR (UniProt Q9Y6K1)”, the “probe-labelled cysteine peptide fold change” value (10 µM) came to 0.0266 and the “probe-labelled cysteine peptide fold change” value (50 µM) came to 0.103.

On to “DTX3L_Q8TDB6_219_DSCISPSEPETK (UniProt Q8TDB6)”, for which the “probe-labelled cysteine peptide fold change” value is, setting by setting: (10 µM) -0.183; (50 µM) -0.184.

Consider “DTWD2_Q8NBA8_252_NNYIQETLLRPLQALCSFQLQHGAQIR (UniProt Q8NBA8)”, for which the “probe-labelled cysteine peptide fold change” value is -0.172 (10 µM) and -0.484 (50 µM).

Turning to “DOCK8_Q8NF50_939_MSYYCSGSSDAPSSPAAPRPASK (UniProt Q8NF50)”, the “probe-labelled cysteine peptide fold change” value (10 µM) is -0.143 and the “probe-labelled cysteine peptide fold change” value (50 µM) is -0.265.

“DNMT1_P26358_580_HAQFVVEQVESYDEAGDSDEQPIFLTPCMR (UniProt P26358)”: the “probe-labelled cysteine peptide fold change” value is, setting by setting: (10 µM) 0.0642; (50 µM) 0.604.

Regarding “DRAM2_Q6UX65_252_VEANLHGLTLYDTAPCPINNER (UniProt Q6UX65)”, the “probe-labelled cysteine peptide fold change” value is 0.183 (10 µM) and -0.00108 (50 µM).

As for “DOK3_Q7L591_133+144_LADCVSVLPADGESCPR (UniProt Q7L591)”, the “probe-labelled cysteine peptide fold change” value was -0.268 (10 µM) and -0.159 (50 µM).

Take “DUS1L_Q6P1R4_169_AGCQLLTVHGR (UniProt Q6P1R4)”: the “probe-labelled cysteine peptide fold change” value by setting is: (10 µM) 0.0294; (50 µM) -0.233.

On to “DYNC1H1_Q14204_3089_CVLNWFGDWSTEALYQVGK (UniProt Q14204)”, for which the “probe-labelled cysteine peptide fold change” value runs as follows: (10 µM) -0.15; (50 µM) -0.0551.

Take “DPYD_Q12882_82_CADAPCQK (UniProt Q12882)”: the “probe-labelled cysteine peptide fold change” value (10 µM) worked out at 0.0269 and the “probe-labelled cysteine peptide fold change” value (50 µM) came to 0.145.

On to “DYNC1H1_Q14204_2076_LCDEQLSSQSHYDFGLR (UniProt Q14204)”, for which the “probe-labelled cysteine peptide fold change” value was -0.0206 (10 µM) and -0.0936 (50 µM).

For the target “DYNC1H1_Q14204_2454_CLGSLFSMLHQACR (UniProt Q14204)”, the “probe-labelled cysteine peptide fold change” value reads like this: (10 µM) -0.164; (50 µM) 0.133.

Take “DOK2_O60496_36_FGASLYGGSDCALAR (UniProt O60496)”: the “probe-labelled cysteine peptide fold change” value is -0.0137 (10 µM) and 0.00145 (50 µM).
